# Source: patent publication US20160046678A1 (ZYNGENIA, published 2016)
# The chains behind the UniProt entries cited, without tags or fusion partners. Residues count along the entry.
# UniProt P05231, residues 30-212: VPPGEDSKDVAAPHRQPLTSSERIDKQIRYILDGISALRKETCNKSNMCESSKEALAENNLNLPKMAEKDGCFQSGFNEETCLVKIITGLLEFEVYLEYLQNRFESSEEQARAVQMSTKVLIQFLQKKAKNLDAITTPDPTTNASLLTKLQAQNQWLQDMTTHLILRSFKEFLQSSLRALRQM
# These are yes or no findings as the source states them, for the method shown. Some results given as binding are weak or reduced against the parent protein; the word gives no strength.
# Target: IL6 (UniProt P05231)
# Assay: MRD identification, Example 48
row,binding,Binder
1,binds,FNEDCMWDPLLMDCAYSPGQGSAAGGGSHPWRHNMHKI [ILB822]
2,binds,HRAPCFSCTACRQPCFSLT [ILB776]
3,binds,FQGHCALFPTDWICTLKS [ILB806]
4,binds,FNEDCMWDPLLMDCAYSPGQGSAAGGSQFLLCNGSEWCPANRQG [ILB811]
5,binds,FNEDCMWDPLLMDCAYSPAGGGSICQATPYSPWCR [ILB775]
6,binds,FNEDCMWDPLLMDCAYSPGQGSAAGGGSPCRFWPGRAFCH [ILB783]
7,binds,FNEDCMWDPLLMDCAYSPGQGSAAGGSPVLGCRNVHNTQCRLWFQG [ILB798]
8,binds,FNEDCMWDPLLMDCAYSPGQGSAAGGGSLCDQWQSARYCV [ILB819]
9,binds,FNEDCMWDPLLMDCAYSPGQGSATGGSGSTASAAGGGSHQHNFQLRYT [ILB818]
10,binds,ANSWCHTLYWQLHHCEILE [ILB792]
11,binds,FNEDCMWDPLLMDCAYSPAGGGSVCPTQPANCQ [ILB782]
12,binds,FNEDCMWDPLLMDCAYSPGQGSAAGGGSSCNITDQMGVCL [ILB828]
13,binds,FNEDCMWDPLLMDCAYSPGQGSATGGSAAGDGSIEHHGAWSAQ [ILB797]
14,binds,FNEDCMWDPLLMDCAYSPGQGSATGGSGSTASAAGGGSQPWRHNMQKI [ILB788]
15,binds,GLHGCQYVQMFFHFCAPKT [ILB799]
16,binds,FNEDCMWDPLLMDCAYSPGQGSAAGGGSKCDWQPWFCP [ILB786]
17,binds,FNEDCMWDPLLMDCAYSPGQGSATGGSGSTASAAGGGSQFPYESPPSI [ILB789]

row,binding,Binder
1,binds,ILB800 (peptide) peptide: FNEDCMWDPLLMDCAYSPGQGSATGGSAAGGSHWERCVPHSDPDYNCSFDS
2,binds,FNEDCMWDPLLMDCAYSPGQGSAAGGGSPRAWQFPVSS [ILB835]
3,binds,FNEDCMWDPLLMDCAYSPGQGSAAGGSARRGCVMLNECSSVSQG [ILB831]
4,binds,CRNSCHWDPLIMDCMQEM [ILB773]
5,binds,FNEDCMWDPLLMDCAYSPAGGSALRMCDSWVENRCLG [ILB778]
6,binds,ILB810 (peptide) peptide: FNEDCMWDPLLMDCAYSPGQGSATGGSGSTASAAGGSDAWGCLDDFFMKVAGCKTLF
7,binds,FNEDCMWDPLLMDCAYSPGQGSAAGGGSECMSSWHGCT [ILB809]
8,binds,FNEDCMWDPLLMDCAYSPAGGGSIWQTEVIVPD [ILB793]
9,binds,FNEDCMWDPLLMDCAYSPGQGSAAGGSRMRSVCPHHVCWRGVPQG [ILB832]
10,binds,FNEDCMWDPLLMDCAYSPGQGSAAGGGSIVQHQPSRMY [ILB774]
11,binds,FNEDCMWDPLLMDCAYSP [ILB820]
12,binds,PDSRCHTLYWALRYCAYQE [ILB814]
13,binds,FNEDCMWDPLLMDCAYSPGQGSAAGGSPLVDCLTYPEWVNCPRTIQG [ILB823]
14,binds,FNEDCMWDPLLMDCAYSPGQGSATGGSAAGGGSWHSYTAMYAD [ILB815]
15,binds,FNEDCMWDPLLMDCAYSPGQGSAAGGGSWNRHPPPSGQ [ILB826]
16,binds,FNEDCMWDPLLMDCAYSPGQGSATGGSAAGGGSECELDYHMVWCK [ILB784]
17,binds,FNEDCMWDPLLMDCAYSPGQGSAAGGGSPPHPSNSIWR [ILB802]

# The next lines start with the binder.
row,Binder,binding
1,FNEDCMWDPLLMDCAYSPGQGSAAGGGSHPWRHNMQKI [ILB780],binds
2,FNEDCMWDPLLMDCAYSPGQGSAAGGGSMGGEDDIWHQ [ILB813],binds
3,FNEDCMWDPLLMDCAYSPAGGSPKSECVAPLEMIECPSLW [ILB833],binds
4,FNEDCMWDPLLMDCAYSPGQGSAAGGGSDCNFAPKETNCW [ILB824],binds
5,FNEDCMWDPLLMDCAYSPGQGSAAGGGSGMVSHWKKVQ [ILB816],binds
6,FNEDCMWDPLLMDCAYSPGQGSATGGSAAGGSRLSLHCPEHPCGSSWTQG [ILB803],binds
7,FNEDCMWDPLLMDCAYSPGQGSATGGSGSTASAAGGGSRVRLDHWEQV [ILB794],binds
8,FNEDCMWDPLLMDCAYSPGQGSAAGGSVGLLCQDFAYGQTHCDVLQQG [ILB807],binds
9,FNEDCMWDPLLMDCAYSPGRGSSLGGVSPPIVSGRASA [ILB791],binds
10,FNEDCMWDPLLMDCAYSPAGGGSMQYHPWQDMW [ILB827],binds
11,FNEDCMWDPLLMDCAYSPGQGSAAGGSAQWQCHINPTGMACVDMLQG [ILB779],binds
12,FNEDCMWDPLLMDCAYSPGQGSAAGGGSFCMWPFCIPPR [ILB812],binds
13,FNEDCMWDPLLMDCAYSPGQGSAAGGGSFWMQQAQQHK [ILB785],binds
14,ILB817 (peptide) peptide: FNEDCMWDPLLMDCAYSPGQGSATGGSGSTASAAGGSQGMPCQYHAMQLCPPSR,binds
15,ILB825 (peptide) peptide: FNEDCMWDPLLMDCAYSPGQGSATGGSGSTASAAGGSKTLFCGYDGYDMCDLSA,binds
16,FNEDCMWDPLLMDCAYSPGQGSAAGGGSQFPYESPPSI [ILB781],binds
17,FNEDCMWDPLLMDCAYSPGQGSAAGDGSMCYQEPHFTYCP [ILB808],binds
18,ILB829 (peptide) peptide: FNEDCMWDPLLMDCAYSPGQGSATGGSAAGGSWDDTCNAEVYQQGLMCDTRVQG,binds
19,FNEDCMWDPLLMDCAYSPAGGSGWVFRCKNMPCAKAEH [ILB801],binds
20,FNEDCMWDPLLMDCAYSPGQGSAAGGGSYCHEDPRSLDCR [ILB821],binds
21,FNEDCMWDPLLMDCAYSPGQGSAAGGSSVFWCYSQHGCALTSQG [ILB834],binds
22,FNEDCMWDPLLMDCAYSPAGGGSFVGESQYMQTK [ILB787],binds
23,FNEDCMWDPLLMDCAYSPAGGGSPDWITWQPAW [ILB804],binds
